Reference: publication PMC3737563, “Investigation of DNA sequence recognition by a streptomycete MarR family transcriptional regulator through surface plasmon resonance and X-ray crystallography” (Nucleic Acids Research, 2013)
Construct, isoform or probe ends are uncertain for at least one entry. A weaker result is weaker than the reference pair of the same experiment. At least one verdict was read from the data and is not stated in words by the source. Tags and fusion partners may be left off the protein sequences shown. Whether high values mean tight binding is not given here for every scale.

Target: T1, SCO3205 (MarR family regulator) (Streptomyces coelicolor) (UniProt Q9KYU1)
T1 sequence (looked up): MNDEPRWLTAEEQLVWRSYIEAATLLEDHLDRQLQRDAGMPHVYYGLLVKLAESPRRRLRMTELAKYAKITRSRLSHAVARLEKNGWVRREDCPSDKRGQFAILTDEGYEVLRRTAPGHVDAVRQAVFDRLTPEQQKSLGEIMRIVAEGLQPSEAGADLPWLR
Assay: SPR
Settings: SPR (ReDCaT, Biacore T200) in HBS-EP+: 10 mM HEPES pH 7.4, 150 mM NaCl, 3 mM EDTA, 0.05% P20, 20°C, recombinant protein, residues 1-163, protein details: N-terminal His tag plus TEV site, not removed, label: biotin linker S6 hybridised to overhang; for Kd: steady-state 1:1 fit

Row | Sequence | binding result | binding result (50 nM SCO3205) | further results
1 | AAGAAGTTCAAGCTTCAACCAAAA / TTTTGGTTGAAGCTTGAACTTCTTCCTACCCTACGTCCTCCTGC [O5049_24mer] | – | – | binding signal (% of theoretical Rmax) (100 nM SCO3205, dissociates faster than O3204): 100
2 | ACGCCGATTTTGTTTAATGTTCAAGG / CCTTGAACATTAAACAAAATCGGCGTCCTACCCTACGTCCTCCTGC [O3205_RH_Δ10] | binds more weakly | – | –
3 | ACGCCGATTTTGTTTAATGTTCAAGGAA / TTCCTTGAACATTAAACAAAATCGGCGTCCTACCCTACGTCCTCCTGC [O3205_RH_Δ8] | – | – | binding result (lower maximum, faster dissociation): binds more weakly
4 | ACGCCGATTTTGTTTAATGTTCAAGGAAC / GTTCCTTGAACATTAAACAAAATCGGCGTCCTACCCTACGTCCTCCTGC [fragment_11] | – | – | binding signal (% of theoretical Rmax) (100 nM SCO3205): 100
5 | ACGCCGATTTTGTTTAATGTTCAAGGAACC / GGTTCCTTGAACATTAAACAAAATCGGCGTCCTACCCTACGTCCTCCTGC [O3205_RH_Δ6] | – | – | binding result (RH boundary): binds
6 | ACGCCGATTTTGTTTAATGTTCAAGGAACCGT / ACGGTTCCTTGAACATTAAACAAAATCGGCGTCCTACCCTACGTCCTCCTGC [O3205_RH_Δ4] | binds | – | –
7 | ACGCCGATTTTGTTTAATGTTCAAGGAACCGTCT / AGACGGTTCCTTGAACATTAAACAAAATCGGCGTCCTACCCTACGTCCTCCTGC [O3205_RH_Δ2] | binds | – | –
8 | ACGCCGATTTTGTTTAATGTTCAAGGAACCGTCTCG / CGAGACGGTTCCTTGAACATTAAACAAAATCGGCGTCCTACCCTACGTCCTCCTGC [O3205_RH] | binds | – | –
9 | ACGGCACGTAAAGATTGAGA / TCTCAATCTTTACGTGCCGTCCTACCCTACGTCCTCCTGC [O3204_LH_Δ16] | binds more weakly | – | –
10 | ACGGCACGTAAAGATTGAGAGT / ACTCTCAATCTTTACGTGCCGTCCTACCCTACGTCCTCCTGC [O3204_LH_Δ14] | binds more weakly | – | –
11 | ACGGCACGTAAAGATTGAGAGTTC / GAACTCTCAATCTTTACGTGCCGTCCTACCCTACGTCCTCCTGC [O3204_LH_Δ12] | binds more weakly | – | –
12 | ACGGCACGTAAAGATTGAGAGTTCAA / TTGAACTCTCAATCTTTACGTGCCGTCCTACCCTACGTCCTCCTGC [O3204_LH_Δ10] | binds more weakly | – | –
13 | ACGGCACGTAAAGATTGAGAGTTCAAGT / ACTTGAACTCTCAATCTTTACGTGCCGTCCTACCCTACGTCCTCCTGC [O3204_LH_Δ8] | binds more weakly | – | –
14 | ACGGCACGTAAAGATTGAGAGTTCAAGTAT / ATACTTGAACTCTCAATCTTTACGTGCCGTCCTACCCTACGTCCTCCTGC [O3204_LH_Δ6] | binds more weakly | – | –
15 | ACGGCACGTAAAGATTGAGAGTTCAAGTATTG / CAATACTTGAACTCTCAATCTTTACGTGCCGTCCTACCCTACGTCCTCCTGC [O3204_LH_Δ4] | – | – | binding result (LH boundary, comparable to 36-mer): binds
16 | ACGGCACGTAAAGATTGAGAGTTCAAGTATTGGA / TCCAATACTTGAACTCTCAATCTTTACGTGCCGTCCTACCCTACGTCCTCCTGC [O3204_LH_Δ2] | binds | – | –
17 | ACGGCACGTAAAGATTGAGAGTTCAAGTATTGGAGT / ACTCCAATACTTGAACTCTCAATCTTTACGTGCCGTCCTACCCTACGTCCTCCTGC [O3204_LH] | binds | – | –
18 | ACTCCAATACTTGAACTCTC / GAGAGTTCAAGTATTGGAGTCCTACCCTACGTCCTCCTGC [O3204_RH_Δ16] | binds more weakly | – | –
19 | ACTCCAATACTTGAACTCTCAA / TTGAGAGTTCAAGTATTGGAGTCCTACCCTACGTCCTCCTGC [O3204_RH_Δ14] | binds more weakly | – | –
20 | ACTCCAATACTTGAACTCTCAATC / GATTGAGAGTTCAAGTATTGGAGTCCTACCCTACGTCCTCCTGC [O3204_RH_Δ12] | binds more weakly | – | –
21 | ACTCCAATACTTGAACTCTCAATCTT / AAGATTGAGAGTTCAAGTATTGGAGTCCTACCCTACGTCCTCCTGC [O3204_RH_Δ10] | – | – | binding result (maximum similar to Δ8, slightly faster dissociation): binds

Row | Sequence | binding result | binding result (50 nM SCO3205) | further results
22 | ACTCCAATACTTGAACTCTCAATCTTTA / TAAAGATTGAGAGTTCAAGTATTGGAGTCCTACCCTACGTCCTCCTGC [O3204_RH_Δ8] | – | – | binding result (RH boundary): binds
23 | ACTCCAATACTTGAACTCTCAATCTTTAC / GTAAAGATTGAGAGTTCAAGTATTGGAGTCCTACCCTACGTCCTCCTGC [fragment_5] | – | – | binding signal (% of theoretical Rmax) (100 nM SCO3205): 100
24 | ACTCCAATACTTGAACTCTCAATCTTTACG / CGTAAAGATTGAGAGTTCAAGTATTGGAGTCCTACCCTACGTCCTCCTGC [O3204_RH_Δ6] | binds | – | –
25 | ACTCCAATACTTGAACTCTCAATCTTTACGTG / CACGTAAAGATTGAGAGTTCAAGTATTGGAGTCCTACCCTACGTCCTCCTGC [O3204_RH_Δ4] | binds | – | –
26 | ACTCCAATACTTGAACTCTCAATCTTTACGTGCC / GGCACGTAAAGATTGAGAGTTCAAGTATTGGAGTCCTACCCTACGTCCTCCTGC [O3204_RH_Δ2] | binds | – | –
27 | ACTCCAATACTTGAACTCTCAATCTTTACGTGCCGT / ACGGCACGTAAAGATTGAGAGTTCAAGTATTGGAGTCCTACCCTACGTCCTCCTGC [O3204_RH] | binds | – | –
28 | ATTTTGTTTAATGTTCAAGGAACC / GGTTCCTTGAACATTAAACAAAATCCTACCCTACGTCCTCCTGC [O3205_24mer] | – | – | Kd: 2.4 nM
29 | CAATACATGAACTCTCAATCTTTA / TAAAGATTGAGAGTTCATGTATTGCCTACCCTACGTCCTCCTGC [O3204_T6A] | – | binds more weakly | –
30 | CAATACCTGAACTCTCAATCTTTA / TAAAGATTGAGAGTTCAGGTATTGCCTACCCTACGTCCTCCTGC [O3204_T6C] | – | binds more weakly | –
31 | CAATACGTGAACTCTCAATCTTTA / TAAAGATTGAGAGTTCACGTATTGCCTACCCTACGTCCTCCTGC [O3204_T6G] | – | binds more weakly | –
32 | CAATACTAGAACTCTCAATCTTTA / TAAAGATTGAGAGTTCTAGTATTGCCTACCCTACGTCCTCCTGC [O3204_T7A] | – | binds more weakly | –
33 | CAATACTCGAACTCTCAATCTTTA / TAAAGATTGAGAGTTCGAGTATTGCCTACCCTACGTCCTCCTGC [O3204_T7C] | – | binds more weakly | –
34 | CAATACTGGAACTCTCAATCTTTA / TAAAGATTGAGAGTTCCAGTATTGCCTACCCTACGTCCTCCTGC [O3204_T7G] | – | binds more weakly | –
35 | CAATACTTGAACTCCCAATCTTTA / TAAAGATTGGGAGTTCAAGTATTGCCTACCCTACGTCCTCCTGC [O3204_T14C] | – | binds more weakly | –
36 | CAATACTTGAACTCTCAATCTTTA / TAAAGATTGAGAGTTCAAGTATTGCCTACCCTACGTCCTCCTGC [O3204_24mer / O3204_WT] | – | – | binding signal (% of theoretical Rmax) (50 nM SCO3205): 98.6; Kd: 1.3 nM
37 | CAATACTTGAACTCTCACTCTTTA / TAAAGAGTGAGAGTTCAAGTATTGCCTACCCTACGTCCTCCTGC [O3204_A17C] | – | binds more weakly | –
38 | CAATACTTGAACTCTCAGTCTTTA / TAAAGACTGAGAGTTCAAGTATTGCCTACCCTACGTCCTCCTGC [O3204_A17G] | – | binds more weakly | –
39 | CAATACTTGAACTCTCATTCTTTA / TAAAGAATGAGAGTTCAAGTATTGCCTACCCTACGTCCTCCTGC [O3204_A17T] | – | binds more weakly | –
40 | CAATACTTGAACTCTCCATCTTTA / TAAAGATGGAGAGTTCAAGTATTGCCTACCCTACGTCCTCCTGC [O3204_A16C] | – | binds more weakly | –
41 | CAATACTTGAACTCTCGATCTTTA / TAAAGATCGAGAGTTCAAGTATTGCCTACCCTACGTCCTCCTGC [O3204_A16G] | – | binds more weakly | –
42 | CAATACTTGAACTCTCTATCTTTA / TAAAGATAGAGAGTTCAAGTATTGCCTACCCTACGTCCTCCTGC [O3204_A16T] | – | binds more weakly | –
